# According to PubChem BioAssay AID1347075 (National Center for Advancing Translational Sciences (NCATS), 2019):
# In all, about 400,000 compounds went through this assay and about 5,500 (1.4%) were called active. Inconclusive results, whose numbers are uncertain, are shown with a selection of clear calls. Calls come from the whole dose curve; as a rule, active = well fitted cell-killing curve with a large enough effect; inconclusive = small, poorly fitted or top-dose-only effect, or effect the other way; inactive = flat fitted curve, though single readings scatter. A potency beside an inconclusive call is a rough fit, not a confirmed value.
# Assay: qHTS assay for MDR1-selective chemotherapeutics: Primary screen using the parental adenocarcinoma cell KB-3-1; note: nearly all actives have a fitted effect of over 60% in size
# Conditions: KB-3-1 viability, CellTiter-Glo ATP luminescence, 72 h; activity change, negative = cytotoxic: at 46.1 µM (top of the series)
# Procedure, shortened: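 KB-3-1 cells, DMEM (no phenol red) + 10% FBS; compound by pin transfer, 72 h, 37 °C. Readout: CellTiter-Glo luminescence after 10 min. Data normalized, curve-fitted.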
# % is set by controls: 0 for no effect and ±100 for the full control effect; potency is the fitted concentration of half-maximal effect.
Structure (SMILES),Potency,"activity change, negative = cytotoxic"
O=c1[nH]cc(S(=O)(=O)N2CCN(c3cccc(Cl)c3)CC2)c(=O)[nH]1,"inconclusive: 14.6 µM [rising, partial curve, poor fit]",–
O=C(Nc1nc2ccccc2n1CCOc1ccc(Cl)cc1)c1ccco1,"inconclusive: 23.1 µM [cytotoxic, single point]",–
CCCc1ccc(OCc2ccc(C(=O)N/N=C/c3cccc([N+](=O)[O-])c3)o2)c(OC)c1,active: 18.4 µM,–
CSc1ccc(C(=O)C2CCCN(C(=O)c3nn(C)c(=O)c4ccccc34)C2)cc1 (stereo unspecified),"inconclusive: 29.1 µM [cytotoxic, partial curve, poor fit]",–
COc1cccc(C(=O)NNC2=C(C(=O)C(F)(F)F)CCC2)c1,"inconclusive: 29.1 µM [cytotoxic, single point]",–
COc1cc(-c2nnc(-c3ccco3)o2)ccc1OCc1ccccc1,"inconclusive: 29.1 µM [cytotoxic, single point]",–
CCC(=O)OCCNc1cc(Sc2nccn2C)c2nonc2c1[N+](=O)[O-],"inconclusive: 29.1 µM [cytotoxic, single point]",–
Cc1cccc(C(=O)Nc2ccc(C(=O)N/N=C/c3ccc4c(c3)OCO4)cc2)c1,"inconclusive: 23.1 µM [cytotoxic, single point]",–
Cn1ncc2ccc(-c3ccc4ncnc(NCc5cccs5)c4c3)cc21,"inconclusive: 32.6 µM [cytotoxic, single point]",–
COC(=O)C1=C(C)N(c2cc(Cl)cc(Cl)c2)C(=O)C1,"inconclusive: 29.1 µM [cytotoxic, single point]",–
Cc1sc(NC(=O)CSc2nnc(-c3ccccc3)o2)c(C#N)c1C,–,inactive: 6.43%
CC(NC(c1ccccc1)c1ccccc1)C(=O)N1CCCc2ccccc21 (stereo unspecified),active: 18.4 µM,–
COc1ccc(NC(=O)CN(C)C(=O)c2ccccc2OCC(=O)Nc2cccc(C(F)(F)F)c2)cc1,–,inactive: -1.67%
Cc1ccc(S(=O)(=O)CCC(=O)OCC(=O)N(Cc2ccccc2)C(C)C)cc1,–,inactive: 21.3%
COC(=O)C1C=CC(OC2OC(COC(C)=O)C(OC(C)=O)C(OC(C)=O)C2OC(C)=O)n2c(=O)n(-c3ccccc3)c(=O)n21 (stereo unspecified),"inconclusive: 29.1 µM [cytotoxic, single point]",–
C[C@@H]1CN([C@H](C)CO)C(=O)c2cc(NC(=O)Nc3ccc(C(F)(F)F)cc3)ccc2O[C@H]1CN(C)Cc1ccc(Cl)c(Cl)c1,"inconclusive: 20.6 µM [cytotoxic, single point]",–
CN(CCc1ccccc1)C(=O)c1ccc(NC(=O)Cc2ccc(NC(=O)C3CCN(C(=O)c4ccccc4)CC3)cc2)cc1,–,inactive: 0%
Cc1cccc2cc(C(c3nnnn3Cc3ccccc3)N3CCCc4ccccc43)c(=O)[nH]c12 (stereo unspecified),–,inactive: 19%
Cc1ccc(OCC(=O)Nc2ccccc2C(=O)OCc2cc(=O)n3ccsc3n2)cc1C,–,inactive: 4.55%
COc1ccccc1C(C)NC(=O)CCC(=O)N1CCN(S(=O)(=O)c2ccc(Cl)cc2)CC1 (stereo unspecified),"inconclusive: 18.4 µM [cytotoxic, single point]",–
COC(=O)C1=CN(c2ccc(C)cc2)C(N)=C(C#N)C1c1ccc(OC)cc1 (stereo unspecified),active: 23.1 µM,–

Structure (SMILES),Potency,"activity change, negative = cytotoxic"
COc1ccc([C@H]2/C=C\CN(C(=O)C3CCCC3)[C@@H](C)C(=O)N2Cc2ccc(F)cc2)cc1,"inconclusive: 20.6 µM [cytotoxic, single point]",–
CCS(=O)(=O)Nc1cc2c3c(c1)CCC(=O)N3CCC2,"inconclusive: 0.0116 µM [rising, full curve]",–
CCC(=O)Nc1cc(-c2nc3ncccc3o2)ccc1Cl,"inconclusive: 32.6 µM [rising, single point]",–
CCc1ccccc1NCC(=O)Nc1ccc(Cl)c(C(F)(F)F)c1,"inconclusive: 29.1 µM [cytotoxic, single point]",–
Cc1ccc(NC(=O)CC(C)CC(=O)NCc2ccccc2)cc1Cl (stereo unspecified),–,inactive: -11.5%
Cc1onc(-c2c(F)cccc2Cl)c1C(=O)Nc1cc(S(=O)(=O)N2CCCCC2)ccc1O,"inconclusive: 25.9 µM [cytotoxic, single point]",–
COCCCn1c(SCc2ccccc2)nc2cc(OC)c(OC)cc2c1=N,"inconclusive: 32.6 µM [cytotoxic, single point]",–
COc1ccc(NC(=O)c2sc(=O)n(Cc3ccccc3C#N)c2C)cc1OC,"inconclusive: 9.2 µM [cytotoxic, partial curve]",–
C=CCC[C@H](Cc1ccc(F)cc1)C(=O)OC[C@H](C)NC(=O)[C@H](CC=C)CC(=O)N(CCO)Cc1ccccc1,"inconclusive: 29.1 µM [cytotoxic, single point]",–
COCC(C)n1c(SCC(=O)NNC(=O)c2ccccc2)nc2ccccc2c1=O (stereo unspecified),"inconclusive: 0.0366 µM [cytotoxic, full curve]",–
Cc1ccc(S(=O)(=O)N2CCC(c3ccncc3)CC2)c(C)c1,active: 20.6 µM,–
CC(C)Cc1ccc(C(=O)NCc2ccc3c(c2)OCO3)o1,"inconclusive: 5.8 µM [cytotoxic, full curve, poor fit]",–
C[C@@H]1CN([C@H](C)CO)C(=O)c2cc(NC(=O)Cc3ccccc3)ccc2O[C@H]1CN(C)Cc1ccc(Oc2ccccc2)cc1,"inconclusive: 20.6 µM [cytotoxic, single point]",–
COc1cc(OC)c(NS(=O)(=O)c2ccc3c(c2)NC(=O)CCS3)cc1Cl,active: 18.4 µM,–
COC(=O)c1sc(C(F)(F)F)c(-c2ccccc2)c1S(=O)(=O)NC(C)(C)C,–,inconclusive: -14.3%
Cc1nccc(-c2cccc(NC(=O)Nc3ccc(Cl)cc3)c2)n1,–,inactive: 1.14%
CC(C)(C)CC(C)(C)c1ccc(OCCOCC[N+](C)(C)Cc2ccccc2)cc1,"inconclusive: 29.1 µM [cytotoxic, single point]",–
CCOC(=O)C(C(=O)OCC)C(C(=O)OCC)N1CCOCC1 (stereo unspecified),"inconclusive: 18.4 µM [cytotoxic, single point]",–
CC1=C(C(=O)N2CCCCCC2)CC(CC(=O)NC2CCCC2)C(=O)N1Cc1ccc(F)cc1 (stereo unspecified),–,inactive: 4.55%
Cn1c(=O)c2c(ncn2CC(COCc2ccc(Cl)cc2)OCc2ccc(Cl)cc2)n(C)c1=O (stereo unspecified),"inconclusive: 29.1 µM [cytotoxic, single point]",–

# Look-ups from the list.
# CCC(=O)Nc1cc(-c2nc3ncccc3o2)ccc1Cl – Potency: inconclusive: 32.6 µM [rising, single point]
# Cn1ncc2ccc(-c3ccc4ncnc(NCc5cccs5)c4c3)cc21 – Potency: inconclusive: 32.6 µM [cytotoxic, single point]
